# Screen size: about 320,000 compounds; about 22,000 (6.9%) were called active. Inconclusive means that the source gave no clear call. Such entries were picked first, then a sample of the others. Calls follow the shape of the dose curve; as a rule, active = well fitted inhibition curve with a large enough effect; inconclusive = small, poorly fitted or top-dose-only effect, or another doubt; inactive = no such curve, though single readings can be large or run the other way. Where the call is inconclusive, the potency comes from a doubtful curve fit.
# Experiment: Primary qHTS for delayed death inhibitors of the malarial parasite plastid, 96 hour incubation
# Conditions: P. falciparum luciferase reporter growth; series mostly up to 28.7 µM; activity change, negative = inhibition: at the top concentration
# Summary of the method: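 P. falciparum expressing integrated firefly luciferase grown in erythrocytes (2% hematocrit, 0.05% parasitemia final) with compounds for 96 hours at 37 C, 5% CO2. Growth inhibition read as loss of luminescence after adding luciferase detection reagent.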
# % is scaled to controls: 0 for no effect and ±100 for the full control effect; potency is read from the fitted curve at half-maximal effect.
SMILES,Potency,"activity change, negative = inhibition"
O=C(NCC(=O)N1CCN(c2ccccc2F)CC1)c1cccs1,"inconclusive: 11.7 µM [inhibitor, partial curve, poor fit]",–
CS(=O)(=O)NNP(=O)(NNS(C)(=O)=O)NC(=O)c1ccccc1,"inconclusive: 4.15 µM [inhibitor, single point]",–
O=C(Cn1ncc2c3ccccc3n(Cc3ccccc3)c2c1=O)NCCN1CCOCC1,–,inactive: 36.4%
O=c1c2ccc([N+](=O)[O-])cc2ncn1Cc1ccccc1C(F)(F)F,"inconclusive: 2.08 µM [inhibitor, single point]",–
CC1CCN(CC(=O)N(C)c2c(N)n(Cc3ccccc3)c(=O)[nH]c2=O)CC1,–,inactive: 42.8%
CCc1cccc(OCC(=O)Nc2ccc(C)c(S(=O)(=O)N3CCCCCC3)c2)c1,"inconclusive: 0.0928 µM [inhibitor, full curve, poor fit]",–
Cc1cc(C(=O)C(=O)O)c(C)n1-c1ccc(Cl)c(Cl)c1,–,inactive: -26.4%
C/C(=N\NC(=O)c1nnn(-c2nonc2N)c1CN(C)c1ccccc1)c1ccccn1,active: 5.22 µM,–
O=C(COC(=O)Cc1ccc(Cl)cc1)Nc1ccc(OC(F)F)cc1,–,inactive: 26.9%
CCC(C)(C)n1nnnc1C(c1ccccn1)N1CCN(c2cccc(OC)c2)CC1 (stereo not given),"inconclusive: 18.5 µM [inhibitor, single point]",–
Cc1nc(SCC(=O)CC(=O)OC(C)C)c(C#N)c(C)c1C,–,inactive: -2.87%
CCOC(=O)c1[nH]nc2c1C(=O)N(Cc1ccccc1)C2=O,"inconclusive: 9.28 µM [inhibitor, partial curve]",–
COc1cccc(C(=O)NCCS(=O)(=O)NCC2CCCO2)c1 (stereo not given),–,inactive: -1.14%
CCCCC(=O)NC(c1ccc(N(CC)CC)cc1)c1ccc2cccnc2c1O (stereo not given),–,inactive: 10.6%
CC1=C(C)CC(C(=O)NNC(=O)c2csc3c2CCC(C(C)(C)C)C3)C(C(=O)O)C1 (stereo not given),"inconclusive: 18.5 µM [inhibitor, single point]",–
O=C1CCCN1CC(O)CS(=O)(=O)Cc1ccccc1Cl (stereo not given),–,inactive: 45.6%
CCN(CC(=O)Nc1ccccc1-c1ccccc1)Cc1nc2ccccc2c(=O)[nH]1,"inconclusive: 8.28 µM [inhibitor, partial curve, poor fit]",–
COc1ccc(C2c3[nH]c4ccccc4c3CCN2C(=O)Cc2nonc2C)c(F)c1 (stereo not given),"inconclusive: 18.5 µM [inhibitor, single point]",–
CCC1Nc2ncnc(N3CCN(c4ccccc4)CC3)c2N(Cc2ccc(OC)cc2)C1=O (stereo not given),active: 11.7 µM,–
N/C(CC(=O)Nc1cccc(C(F)(F)F)c1)=N/O,"inconclusive: 18.5 µM [inhibitor, single point]",–
COc1cc(C)c(CN2CCCCC2CO)cc1C (stereo not given),"inconclusive: 0.0294 µM [inhibitor, full curve, poor fit]",–
COc1ccc(S(=O)(=O)N2CCN(C/C=C/c3ccccc3)CC2)cc1NC(C)=O,"inconclusive: 16.5 µM [inhibitor, partial curve, poor fit]",–
Cc1ccc(/C=C/S(=O)(=O)NCC(=O)O)cc1,–,inactive: -32.6% [at 1.15 µM]

SMILES,Potency,"activity change, negative = inhibition"
CCn1nc(C(=O)OCc2c(C)noc2C)c2ccccc2c1=O,–,inactive: 1.19%
COc1cc(-c2cccs2)cc(=O)c2c(C)oc(C)c12,active: 11.7 µM,–
CCOC(=O)C1CCN(C(=O)c2ccc(CNS(=O)(=O)c3ccc(OC)cc3)cc2)CC1,"inconclusive: 0.928 µM [inhibitor, partial curve, poor fit]",–
Cn1c(N)c(C(=O)COC(=O)c2cc(C(F)(F)F)nc3ccccc23)c(=O)n(C)c1=O,"inconclusive: 0.0522 µM [inhibitor, full curve, poor fit]",–
CCC(=O)Nc1ccc2c(c1)nc1n2CCN(C2CCCCC2)C1,–,inactive: 0.192%
CCOC(=O)c1c(C)[nH]c(C)c1C(=O)CSc1nnc(-c2ccc(OC(F)F)cc2)o1,"inconclusive: 9.28 µM [inhibitor, single point]",–
Cc1ccc(NC(=O)COc2cccc(Oc3ccccc3)c2)cc1S(=O)(=O)N1CCOCC1,"inconclusive: 9.28 µM [inhibitor, partial curve, poor fit]",–
CCOc1ncccc1C(=O)NCc1ccc(C)cc1,–,inactive: -14.4%
CC(=O)N1CCCc2cc(S(=O)(=O)N3CCC(C)CC3)ccc21,"inconclusive: 11.7 µM [inhibitor, single point]",–
CCOc1ccc(-c2cc(C(=O)NN=C3CCN(C)CC3)[nH]n2)cc1,–,inactive: 20.3%
CCOC(=O)c1c(NC(=O)CSc2ncccn2)sc2c1CCN(Cc1ccccc1)C2,active: 7.38 µM,–
CN1CCN(c2ccc(NC(=O)c3cccs3)cc2)CC1,"inconclusive: 11.7 µM [inhibitor, single point]",–
COc1ccccc1NC(=O)CSc1ccc2nnc(CCNC(=O)c3ccccc3)n2n1,"inconclusive: 18.5 µM [inhibitor, partial curve, poor fit]",–
COc1ccc(N/N=C(\C=N\O)C(=O)c2ccc(OC)cc2)cc1,–,inactive: 11.7%
CCN(c1ccccc1)S(=O)(=O)c1cccc(C(=O)NCC(c2cccs2)N2CCOCC2)c1 (stereo not given),"inconclusive: 0.465 µM [inhibitor, full curve, poor fit]",–
Cc1ccc(N(C)C(=O)C2CCN(S(=O)(=O)c3ccc4c(c3)oc(=O)n4C)CC2)cc1,–,inactive: 4.03%
CC1CCCCN1C(=O)C1CCCN(S(=O)(=O)c2cccc3nsnc23)C1 (stereo not given),"inconclusive: 10.4 µM [inhibitor, single point]",–
COc1cc(C(=O)N2C(=O)CCC2=O)cc(OC)c1OC,"inconclusive: 18.5 µM [inhibitor, single point]",–
CCN(CC)c1ccc(CN2CCCCCC2)cc1,"inconclusive: 4.15 µM [inhibitor, partial curve]",–
CCN(CC)c1ccc2cc(-c3nc(-c4ccc(OC)cc4)cs3)c(=O)oc2c1,–,inactive: -7.32%
CC1(C)Cc2c(sc3c2c(=O)n(-c2cccc(Cl)c2)c(=O)n3CC(N)=O)CO1,"inconclusive: 18.5 µM [inhibitor, single point]",–
C/C(=N\Nc1ccccc1)c1c(O)n(-c2ccccc2)c(=O)[nH]c1=O,"inconclusive: 2.94 µM [inhibitor, partial curve, poor fit]",–

# Whole records from above.
# CCOC(=O)c1c(C)[nH]c(C)c1C(=O)CSc1nnc(-c2ccc(OC(F)F)cc2)o1 as listed: Potency: inconclusive: 9.28 µM [inhibitor, single point]
# COc1cc(-c2cccs2)cc(=O)c2c(C)oc(C)c12 as listed: Potency: active: 11.7 µM
# CC1(C)Cc2c(sc3c2c(=O)n(-c2cccc(Cl)c2)c(=O)n3CC(N)=O)CO1 as listed: Potency: inconclusive: 18.5 µM [inhibitor, single point]
# CCCCC(=O)NC(c1ccc(N(CC)CC)cc1)c1ccc2cccnc2c1O (stereo not given) as listed: activity change, negative = inhibition: inactive: 10.6%

# Source: PubChem BioAssay AID504834 (National Center for Advancing Translational Sciences (NCATS), 2011)
